Measured values published in patent US20250011418A1 (ZIELBIO, published 2025).
These are yes or no findings as the source states them, for the method shown. Some results given as binding are weak or reduced against the parent protein; the word gives no strength.

Tests used:
[1] = target: Sec8-His (section 8 (Sec8), an antigenic region of CSP-1, tagged with a polyhistidine (His) tag); experiment: BLI (Octet), single shot: antibody on anti-human IgG tips, 24 nM Sec8-His
[2] = target: Reb-His (Reb, a sub-fragment of Sec8, tagged with a polyhistidine (His) tag); experiment: ELISA on Reb-His
[3] = target: Sec8-His (section 8 (Sec8), an antigenic region of CSP-1, tagged with a polyhistidine (His) tag); experiment: ELISA on Sec8-His
[4] = target: Reb-His (Reb, a sub-fragment of Sec8, tagged with a polyhistidine (His) tag); experiment: ELISA on REB-HIS, absorbance 650 nm against concentration in nM on a log axis
[5] = target: Sec8-His (section 8 (Sec8), an antigenic region of CSP-1, tagged with a polyhistidine (His) tag); experiment: ELISA on Sec8-His (target per paragraph 36), absorbance 650 nm against concentration in nM on a log axis

binding [2]	binding [3]	binding [4]	binding [5]	Binder	binding [1]
–	–	–	–	humanized anti-CSP-1 antibody, Antibody Number 42 (Table 1) (antibody, human IgG1, V domains shown, also called Antibody 42) VH: QIQLVQSGSELKKPGASVKVSCKASGYTFTDYSMHWVRQAPGQGLEWMGWINTETGEPTYAQGFTGRFVFSLDTSVSTAYLQISSLKAEDTAVYFCAPGGFAYWGQGTLVTVSS VL: DIVMTQSPLSLPVTPGEPASISCRSSKSLLHSNGNTYLYWFLQKPGQSPQLLIYRMSNLASGVPDRFSGSGSGTDFTLKISRVEAEDVGVYYCMQHLEYPLTFGAGTKLELK	binds
binds	binds	binds	binds	murine anti-CSP-1 antibody 1H11 (antibody, V domains shown, Murine antibody; also called 1H11B5) VH: QIQLVQSGPELKKPGETVKISCKASGYTFTDYSMHWVKQAPGKGLKWMGWINTETGEPTYADDFKGRFAFSLETSASTAYLQINNLKNEDTATYFCAPGGFAYWGQGTLVTVSA VL: DIVMTQAAPSVPVTPGESVSISCRSSKSLLHSNGNTYLYWFLQRPGQSPQLLIYRMSNLASGVPDRFSGSGSGTAFTLRISRVEAEDVGVYYCMQHLEYPLTFGAGTKLELKR	–
